Laboratory results as given in PMC4323032.
These are yes or no findings as the source states them, for the method shown. In cells and extracts the contact can be indirect. Some entries that bind do so weakly or less than the wild type. For part of these data: Tags and fused reporters may be left off the sequences shown. Each block holds one molecule with its values, some of them ahead of it.

Sequences of proteins named here, by UniProt entry; tags and fusion partners are left off. Residues count along the entry.
UniProt P07724, residues 25-608: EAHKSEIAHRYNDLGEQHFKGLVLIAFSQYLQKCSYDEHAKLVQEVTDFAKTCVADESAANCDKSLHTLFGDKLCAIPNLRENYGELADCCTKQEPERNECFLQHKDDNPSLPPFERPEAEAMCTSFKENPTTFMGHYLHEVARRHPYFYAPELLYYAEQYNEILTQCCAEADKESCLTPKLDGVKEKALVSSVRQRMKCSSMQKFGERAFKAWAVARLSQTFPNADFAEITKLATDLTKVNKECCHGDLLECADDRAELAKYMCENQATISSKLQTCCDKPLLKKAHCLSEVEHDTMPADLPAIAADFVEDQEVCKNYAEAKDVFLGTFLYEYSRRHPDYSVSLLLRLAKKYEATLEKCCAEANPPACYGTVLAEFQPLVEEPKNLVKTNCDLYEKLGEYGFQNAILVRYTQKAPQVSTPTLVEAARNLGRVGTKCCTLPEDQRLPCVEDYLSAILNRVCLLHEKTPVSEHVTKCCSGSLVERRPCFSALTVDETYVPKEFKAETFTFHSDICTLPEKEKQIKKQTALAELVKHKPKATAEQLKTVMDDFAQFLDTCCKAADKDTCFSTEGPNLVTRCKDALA
UniProt P53395, residues 62-482: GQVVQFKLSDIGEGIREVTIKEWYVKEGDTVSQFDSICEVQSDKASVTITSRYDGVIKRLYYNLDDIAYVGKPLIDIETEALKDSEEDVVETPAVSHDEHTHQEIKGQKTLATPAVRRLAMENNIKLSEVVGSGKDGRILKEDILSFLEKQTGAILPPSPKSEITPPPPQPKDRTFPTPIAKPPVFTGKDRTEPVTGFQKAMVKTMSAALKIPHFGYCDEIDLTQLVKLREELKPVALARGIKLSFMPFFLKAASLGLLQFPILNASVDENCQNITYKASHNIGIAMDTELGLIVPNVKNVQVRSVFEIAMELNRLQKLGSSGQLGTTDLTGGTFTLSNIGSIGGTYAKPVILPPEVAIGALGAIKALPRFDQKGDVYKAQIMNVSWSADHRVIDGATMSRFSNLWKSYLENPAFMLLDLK
UniProt P11182, residues 62-482: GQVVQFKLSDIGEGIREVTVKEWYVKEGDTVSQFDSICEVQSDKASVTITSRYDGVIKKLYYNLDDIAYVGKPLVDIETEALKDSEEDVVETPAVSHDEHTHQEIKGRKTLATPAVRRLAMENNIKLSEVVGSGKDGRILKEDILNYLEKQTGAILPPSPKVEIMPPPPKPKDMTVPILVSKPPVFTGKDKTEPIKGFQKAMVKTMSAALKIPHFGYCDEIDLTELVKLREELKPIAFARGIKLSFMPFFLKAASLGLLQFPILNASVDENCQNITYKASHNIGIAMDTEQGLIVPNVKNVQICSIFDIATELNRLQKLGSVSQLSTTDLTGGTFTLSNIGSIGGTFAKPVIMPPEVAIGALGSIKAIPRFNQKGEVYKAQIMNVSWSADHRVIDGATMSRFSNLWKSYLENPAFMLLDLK

Experiments:
[1] = molecular target: T1, HA-tagged Prdx V C73S (mouse) (UniProt P99029); assay: co-IP; reverse immunoprecipitation: HEK293 co-transfected with myc-DBT and HA-Prdx V (WT or cysteine mutant), normoxia or hypoxia; precipitated through HA-Prdx V, myc-DBT detected
T1 sequence: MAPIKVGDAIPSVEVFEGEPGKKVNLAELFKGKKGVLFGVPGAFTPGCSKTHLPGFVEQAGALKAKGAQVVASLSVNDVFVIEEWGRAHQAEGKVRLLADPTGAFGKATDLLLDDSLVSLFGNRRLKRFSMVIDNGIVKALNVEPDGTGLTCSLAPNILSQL

[2] = molecular target: T2, HA-tagged wild-type Prdx V (mouse) (UniProt P99029); assay: as above
T2 sequence: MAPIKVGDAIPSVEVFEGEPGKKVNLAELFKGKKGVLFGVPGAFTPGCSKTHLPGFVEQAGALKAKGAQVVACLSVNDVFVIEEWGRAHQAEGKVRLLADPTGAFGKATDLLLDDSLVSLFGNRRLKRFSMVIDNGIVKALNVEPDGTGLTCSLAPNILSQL

[3] = molecular target: T3, Ras related protein Rab 43 isoform b (mouse (endogenous in kidney)) (UniProt Q8CG50); assay: co-IP; endogenous proteins of normoxic and hypoxic mouse kidney lysate; precipitated with antibody to DBT, Rab43, Pccb or Alb, blot probed with Prdx V antibody
T3 sequence: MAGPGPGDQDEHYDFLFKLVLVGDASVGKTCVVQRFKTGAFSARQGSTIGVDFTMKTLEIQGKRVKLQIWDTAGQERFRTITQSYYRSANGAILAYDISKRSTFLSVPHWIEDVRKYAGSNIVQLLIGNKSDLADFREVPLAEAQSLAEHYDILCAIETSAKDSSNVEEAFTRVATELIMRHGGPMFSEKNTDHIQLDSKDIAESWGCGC

[4] = molecular target: Serum albumin (mouse (endogenous in kidney)) (UniProt P07724); assay: as above
[5] = molecular target: Dihydrolipoamide branched chain transacylase E2 (lipoamide acyltransferase component of branched chain α-keto acid dehydrogenase complex, mitochondrial) (mouse (endogenous in kidney)) (UniProt P53395); assay: as above
[6] = molecular target: T4, Propionyl CoA carboxylase beta chain, mitochondrial (mouse (endogenous in kidney)) (UniProt Q99MN9); assay: as above
T4 sequence: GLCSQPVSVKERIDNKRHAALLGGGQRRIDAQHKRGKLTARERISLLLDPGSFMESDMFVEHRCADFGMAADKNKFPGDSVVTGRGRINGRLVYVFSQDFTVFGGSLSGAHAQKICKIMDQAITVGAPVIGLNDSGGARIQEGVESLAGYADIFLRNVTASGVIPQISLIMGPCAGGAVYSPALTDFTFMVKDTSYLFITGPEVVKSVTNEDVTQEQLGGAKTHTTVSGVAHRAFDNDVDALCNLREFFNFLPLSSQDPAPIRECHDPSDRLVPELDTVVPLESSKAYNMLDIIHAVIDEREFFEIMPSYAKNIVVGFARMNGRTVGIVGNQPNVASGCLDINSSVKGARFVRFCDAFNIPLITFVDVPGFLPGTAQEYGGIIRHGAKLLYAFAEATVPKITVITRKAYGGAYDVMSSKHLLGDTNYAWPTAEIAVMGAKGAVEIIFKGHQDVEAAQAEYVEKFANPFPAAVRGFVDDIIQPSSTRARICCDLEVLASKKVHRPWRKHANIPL

[7] = molecular target: myc-tagged DBT (human) (UniProt P11182); assay: co-IP; HEK293 co-transfected with myc-DBT and HA-Prdx V (WT or cysteine mutant), normoxia or hypoxia (1% O2, 6 h); total lysate precipitated with anti-myc-conjugated agarose, HA-Prdx V detected

binding [1]: binds
binding [2]: binds
Molecule: myc-tagged DBT (from UniProt P11182 62-482)

binding [3]: binds
binding [4]: binds
binding [5]: binds
binding [6]: binds
B1: Peroxiredoxin V (protein, UniProt P99029 49-210)
chain: MAPIKVGDAIPSVEVFEGEPGKKVNLAELFKGKKGVLFGVPGAFTPGCSKTHLPGFVEQAGALKAKGAQVVACLSVNDVFVIEEWGRAHQAEGKVRLLADPTGAFGKATDLLLDDSLVSLFGNRRLKRFSMVIDNGIVKALNVEPDGTGLTCSLAPNILSQL

binding [7]: binds
B2: HA-tagged Prdx V C73S (protein, UniProt P99029 49-210)
chain: MAPIKVGDAIPSVEVFEGEPGKKVNLAELFKGKKGVLFGVPGAFTPGCSKTHLPGFVEQAGALKAKGAQVVASLSVNDVFVIEEWGRAHQAEGKVRLLADPTGAFGKATDLLLDDSLVSLFGNRRLKRFSMVIDNGIVKALNVEPDGTGLTCSLAPNILSQL

binding [7]: binds
B3: HA-tagged wild-type Prdx V (protein, UniProt P99029 49-210)
chain: MAPIKVGDAIPSVEVFEGEPGKKVNLAELFKGKKGVLFGVPGAFTPGCSKTHLPGFVEQAGALKAKGAQVVACLSVNDVFVIEEWGRAHQAEGKVRLLADPTGAFGKATDLLLDDSLVSLFGNRRLKRFSMVIDNGIVKALNVEPDGTGLTCSLAPNILSQL

binding [7]: binds
B4: HA-tagged Prdx V C152S (protein, UniProt P99029 49-210)
chain: MAPIKVGDAIPSVEVFEGEPGKKVNLAELFKGKKGVLFGVPGAFTPGCSKTHLPGFVEQAGALKAKGAQVVACLSVNDVFVIEEWGRAHQAEGKVRLLADPTGAFGKATDLLLDDSLVSLFGNRRLKRFSMVIDNGIVKALNVEPDGTGLTSSLAPNILSQL
